Data source: PubChem BioAssay AID743454 (Peter MacCallum Cancer Centre, 2014)
Aim: 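Search for knock-downs that restore vorinostat killing in resistant colon cancer cells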 (primary screen). Cells: human HCT116-VR colon cancer cells, selected for vorinostat resistance. Reagent: siRNA pool against human genes, 40 nM siRNA pool. Time to read-out: vorinostat for 24 h, read-out about 72 h after transfection. Conditions: vorinostat at 2.5 µM final. Measurement: 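Two measures, CellTiter-Fluor viability and luminescent caspase 3/7 activity, each as fold change against same-plate mock wells, mean of duplicates, then screen-wide robust z-score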. Scale: viability robust z-score: higher = more viable cells than screen typical; caspase robust z-score: higher = more caspase 3/7 activity than screen typical. Call rule: 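Hits are knock-downs in viability class RV1/RV2 or caspase class CA1/CA2, excluding ones that killed cells in the no-drug cell-count arm; hits then retested with single siRNAs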.
In all, the deposit lists about 18,000 reagents; shown is an unselected part. Over the whole deposit, 450 (2.5%) were called active. 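Single biological run; no consistent viability z cut-off exists, so the class columns, not z-scores, define the calls.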 Unmarked entries are inactive. No sequences are given here.

OR5F1 scored viability hit class no change; caspase hit class no change; viability robust z-score 0.85; caspase robust z-score -0.1.
For HOXB8, the entry reads viability hit class no change; caspase hit class no change; viability robust z-score 0.13; caspase robust z-score -0.42.
After knock-down of ENOX1, the screen gave viability hit class no change; caspase hit class no change; viability robust z-score 0.12; caspase robust z-score -0.96.
Against PRDM12 the deposit lists viability hit class no change; caspase hit class no change; viability robust z-score -0.1; caspase robust z-score 1.02.
Depletion of TPPP3 gave: viability hit class no change; caspase hit class no change; viability robust z-score -0.88; caspase robust z-score 3.4.
SLC22A16 showed viability hit class no change; caspase hit class no change; viability robust z-score -1.48; caspase robust z-score -1.
BCL2L12 scored viability hit class no change; caspase hit class no change; viability robust z-score -0.96; caspase robust z-score 2.84.
With knock-down of WDR91, the record shows viability hit class no change; caspase hit class no change; viability robust z-score 0.22; caspase robust z-score 0.18.
MLLT6 gave viability hit class no change; caspase hit class no change; viability robust z-score -1.49; caspase robust z-score 1.27.
Knock-down of PROSER1 came out at: viability hit class no change; caspase hit class no change; viability robust z-score -2.42; caspase robust z-score 1.08.
After knock-down of CPLX1, the record shows viability hit class no change; caspase hit class no change; viability robust z-score 1.62; caspase robust z-score 0.94.
Depletion of PLD3 came out at: viability hit class no change; caspase hit class no change; viability robust z-score 0.52; caspase robust z-score 2.42.
After knock-down of ANKS4B, the record shows viability hit class no change; caspase hit class no change; viability robust z-score -0.06; caspase robust z-score -1.06.
Against UCN3, the entry reads viability hit class no change; caspase hit class no change; viability robust z-score 2.8; caspase robust z-score -0.14.
